# Some of the results follow.
# How the values were obtained:
# Experiment in all cases: glycan array binding signal (z-score within array); higher = stronger binding
# Settings in all cases: glycan notation: IUPAC condensed, linker removed
# [1] = target: Gal(b1-3)[Fuc(a1-4)]GlcNAc(b1-3)Gal(b1-4)[Fuc(a1-3)]GlcNAc
# Method in brief: (§1)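 Columns mapping to the same glycan were averaged after glycan names were converted to IUPAC-condensed notation. The data come from 3228 arrays in the Consortium for Functional Glycomics database, limited to those with an available protein sequence. Binding is reported as a within-array Z-score averaged across arrays of one protein sequence and across linkers.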
# [2] = target: Gal(b1-3)[Fuc(a1-4)]GlcNAc(b1-6)GalNAc
# Method in brief: as §1
# [3] = target: Gal(b1-3)[GlcNAc(b1-6)]GalNAc
# Method in brief: as §1
# [4] = target: Gal(b1-3)[Neu5Ac(a2-6)]GalNAc
# Method in brief: as §1
# [5] = target: Gal(b1-3)[Neu5Ac(a2-6)]GlcNAc(b1-4)Gal(b1-4)Glc
# Method in brief: as §1
# [6] = target: Gal(b1-3)[Neu5Ac(b2-6)]GalNAc
# Method in brief: as §1
# [7] = target: Gal(b1-4)Gal
# Method in brief: as §1
# [8] = target: Gal(b1-4)GalNAc(a1-3)[Fuc(a1-2)]Gal(b1-4)GlcNAc
# Method in brief: as §1
# [9] = target: Gal(b1-4)GalNAc(b1-3)[Fuc(a1-2)]Gal(b1-4)GlcNAc
# Method in brief: as §1
# [10] = target: Gal(b1-4)Glc
# Method in brief: as §1
# [11] = target: Gal(b1-4)Glc6S
# Method in brief: as §1
# [12] = target: Gal(b1-4)GlcNAc
# Method in brief: as §1
# [13] = target: Gal(b1-4)GlcNAc(a1-6)Gal(b1-4)GlcNAc
# Method in brief: as §1
# [14] = target: Gal(b1-4)GlcNAc(b1-2)Man
# Method in brief: as §1
# [15] = target: Gal(b1-4)GlcNAc(b1-2)Man(a1-3)Man(b1-4)GlcNAc(b1-4)GlcNAc
# Method in brief: as §1
# [16] = target: Gal(b1-4)GlcNAc(b1-2)Man(a1-3)[Gal(b1-4)GlcNAc(b1-2)Man(a1-6)]Man(b1-4)GlcNAc(b1-4)GlcNAc
# Method in brief: as §1
# [17] = target: Gal(b1-4)GlcNAc(b1-2)Man(a1-3)[Gal(b1-4)GlcNAc(b1-2)Man(a1-6)]Man(b1-4)GlcNAc(b1-4)[Fuc(a1-6)]GlcNAc
# Method in brief: as §1
# [18] = target: Gal(b1-4)GlcNAc(b1-2)Man(a1-3)[Gal(b1-4)GlcNAc(b1-2)Man(a1-6)][Gal(b1-4)GlcNAc(b1-4)]Man(b1-4)GlcNAc(b1-4)[Fuc(a1-6)]GlcNAc
# Method in brief: as §1
# [19] = target: Gal(b1-4)GlcNAc(b1-2)Man(a1-3)[Gal(b1-4)GlcNAc(b1-2)Man(a1-6)][GlcNAc(b1-4)]Man(b1-4)GlcNAc(b1-4)[Fuc(a1-6)]GlcNAc
# Method in brief: as §1
# [20] = target: Gal(b1-4)GlcNAc(b1-2)Man(a1-3)[GlcNAc(b1-2)Man(a1-6)]Man(b1-4)GlcNAc(b1-4)GlcNAc
# Method in brief: as §1
# [21] = target: Gal(b1-4)GlcNAc(b1-2)Man(a1-3)[GlcNAc(b1-4)][Gal(b1-4)GlcNAc(b1-2)Man(a1-6)]Man(b1-4)GlcNAc(b1-4)GlcNAc
# Method in brief: as §1
# [22] = target: Gal(b1-4)GlcNAc(b1-2)Man(a1-3)[Man(a1-6)]Man(b1-4)GlcNAc(b1-4)GlcNAc
# Method in brief: as §1
# [23] = target: Gal(b1-4)GlcNAc(b1-2)Man(a1-6)Man(b1-4)GlcNAc(b1-4)GlcNAc
# Method in brief: as §1
# [24] = target: Gal(b1-4)GlcNAc(b1-2)Man(a1-6)[GlcNAc(b1-2)Man(a1-3)]Man(b1-4)GlcNAc(b1-4)GlcNAc
# Method in brief: as §1
# [25] = target: Gal(b1-4)GlcNAc(b1-2)Man(a1-6)[Man(a1-3)]Man(b1-4)GlcNAc(b1-4)GlcNAc
# Method in brief: as §1
# [26] = target: Gal(b1-4)GlcNAc(b1-2)[Gal(b1-4)GlcNAc(b1-4)]Man(a1-3)[Gal(b1-4)GlcNAc(b1-2)Man(a1-6)]Man(b1-4)GlcNAc(b1-4)GlcNAc
# Method in brief: as §1
# [27] = target: Gal(b1-4)GlcNAc(b1-2)[Gal(b1-4)GlcNAc(b1-4)]Man(a1-3)[Gal(b1-4)GlcNAc(b1-2)[Gal(b1-4)GlcNAc(b1-6)]Man(a1-6)]Man(b1-4)GlcNAc(b1-4)GlcNAc
# Method in brief: as §1
# [28] = target: Gal(b1-4)GlcNAc(b1-2)[Gal(b1-4)GlcNAc(b1-4)]Man(a1-3)[GlcNAc(b1-4)][Gal(b1-4)GlcNAc(b1-2)Man(a1-6)]Man(b1-4)GlcNAc(b1-4)GlcNAc
# Method in brief: as §1
# [29] = target: Gal(b1-4)GlcNAc(b1-2)[Gal(b1-4)GlcNAc(b1-4)]Man(a1-3)[GlcNAc(b1-4)][Gal(b1-4)GlcNAc(b1-2)[Gal(b1-4)GlcNAc(b1-6)]Man(a1-6)]Man(b1-4)GlcNAc(b1-4)GlcNAc
# Method in brief: as §1
# [30] = target: Gal(b1-4)GlcNAc(b1-2)[Gal(b1-4)GlcNAc(b1-6)]Man(a1-6)[Gal(b1-4)GlcNAc(b1-2)Man(a1-3)]Man(b1-4)GlcNAc(b1-4)GlcNAc
# Method in brief: as §1
# [31] = target: Gal(b1-4)GlcNAc(b1-2)[Gal(b1-4)GlcNAc(b1-6)]Man(a1-6)[Gal(b1-4)GlcNAc(b1-2)Man(a1-3)]Man(b1-4)GlcNAc(b1-4)[Fuc(a1-6)]GlcNAc
# Method in brief: as §1
# [32] = target: Gal(b1-4)GlcNAc(b1-2)[Gal(b1-4)GlcNAc(b1-6)]Man(a1-6)[GlcNAc(b1-4)][Gal(b1-4)GlcNAc(b1-2)Man(a1-3)]Man(b1-4)GlcNAc(b1-4)GlcNAc
# Method in brief: as §1
# [33] = target: Gal(b1-4)GlcNAc(b1-2)[Gal(b1-4)GlcNAc(b1-6)]Man(a1-6)[GlcNAc(b1-4)][Gal(b1-4)GlcNAc(b1-2)[Gal(b1-4)GlcNAc(b1-4)]Man(a1-3)]Man(b1-4)GlcNAc(b1-4)[Fuc(a1-6)]GlcNAc
# Method in brief: as §1
# [34] = target: Gal(b1-4)GlcNAc(b1-3)Gal(b1-3)GalNAc
# Method in brief: as §1
# [35] = target: Gal(b1-4)GlcNAc(b1-3)Gal(b1-3)GlcNAc
# Method in brief: as §1
# [36] = target: Gal(b1-4)GlcNAc(b1-3)Gal(b1-4)Glc
# Method in brief: as §1
# [37] = target: Gal(b1-4)GlcNAc(b1-3)Gal(b1-4)GlcNAc
# Method in brief: as §1
# [38] = target: Gal(b1-4)GlcNAc(b1-3)Gal(b1-4)GlcNAc(b1-2)Man(a1-3)[Gal(b1-4)GlcNAc(b1-3)Gal(b1-4)GlcNAc(b1-2)Man(a1-6)]Man(b1-4)GlcNAc(b1-4)GlcNAc
# Method in brief: as §1
binder,measurement,setting,value
"Clec12b (Mus musculus), Q149M0 (protein) MSDEVTYATLMLQDSARVRGNQDGNNLRKEGHPAQSSLWRGAALSLMTLCLVLVTGLVTLATMFLQVSNDINSDSEKLSQLQKSIHPQQDNLSESLNSSRKSLTEESLQSQISALLERQEQMATKLCKEFLIHASDHKCNPCPKTWQWYGNSCYYFSINEEKSWSDSRKDCIDKNATLVKIDSTEERDLLQSQLSLTFSFFWLGLSWNSSGRNWLWEDGSFPPPTLFSDKELASFNGSRDCAYFERGNIYASRCSAEIPWICEKTASLVKTEDLD",glycan array binding signal (z-score),[1],-0.729
same,glycan array binding signal (z-score),[2],-0.018
same,glycan array binding signal (z-score),[3],-0.137
same,glycan array binding signal (z-score),[4],0.27
same,glycan array binding signal (z-score),[5],1.27
same,glycan array binding signal (z-score),[6],-0.423
same,glycan array binding signal (z-score),[7],-0.359
same,glycan array binding signal (z-score),[8],0.605
same,glycan array binding signal (z-score),[9],-0.389
same,glycan array binding signal (z-score),[10],-0.157
same,glycan array binding signal (z-score),[11],-0.015
same,glycan array binding signal (z-score),[12],0.054
same,glycan array binding signal (z-score),[13],-0.562
same,glycan array binding signal (z-score),[14],0.16
same,glycan array binding signal (z-score),[15],-0.6
same,glycan array binding signal (z-score),[16],0.242
same,glycan array binding signal (z-score),[17],-0.387
same,glycan array binding signal (z-score),[18],-0.592
same,glycan array binding signal (z-score),[19],1.72
same,glycan array binding signal (z-score),[20],-0.528
same,glycan array binding signal (z-score),[21],-0.391
same,glycan array binding signal (z-score),[22],0.251
same,glycan array binding signal (z-score),[23],0.112
same,glycan array binding signal (z-score),[24],0.017
same,glycan array binding signal (z-score),[25],-0.446
same,glycan array binding signal (z-score),[26],-0.64
same,glycan array binding signal (z-score),[27],0.114
same,glycan array binding signal (z-score),[28],-0.111
same,glycan array binding signal (z-score),[29],0.816
same,glycan array binding signal (z-score),[30],0.531
same,glycan array binding signal (z-score),[31],0.226
same,glycan array binding signal (z-score),[32],-0.128
same,glycan array binding signal (z-score),[33],1.61
same,glycan array binding signal (z-score),[34],-0.206
same,glycan array binding signal (z-score),[35],-0.518
same,glycan array binding signal (z-score),[36],-0.432
same,glycan array binding signal (z-score),[37],-0.15
same,glycan array binding signal (z-score),[38],0.387

# Pulled one by one from the list above, two records:
binder,measurement,setting,value
"Clec12b (Mus musculus), Q149M0 (protein) MSDEVTYATLMLQDSARVRGNQDGNNLRKEGHPAQSSLWRGAALSLMTLCLVLVTGLVTLATMFLQVSNDINSDSEKLSQLQKSIHPQQDNLSESLNSSRKSLTEESLQSQISALLERQEQMATKLCKEFLIHASDHKCNPCPKTWQWYGNSCYYFSINEEKSWSDSRKDCIDKNATLVKIDSTEERDLLQSQLSLTFSFFWLGLSWNSSGRNWLWEDGSFPPPTLFSDKELASFNGSRDCAYFERGNIYASRCSAEIPWICEKTASLVKTEDLD",glycan array binding signal (z-score),[10],-0.157
same,glycan array binding signal (z-score),[13],-0.562
